From doi:10.1101/2024.02.23.581798
Results are given in words; binding and its absence hold for the method and conditions named. Binding seen in cells or lysates may run through a third protein. Here binding means that the protein was enriched with, or labelled near, the bait; the list need not be complete.

Biological target: TbSETD fused to a C-terminal HA tag (TbSETD.HA) (Trypanosoma brucei) (UniProt Q38DP6)
Test: affinity purification with mass spectrometry

Row | Substance | binding
1 | acyl carrier protein (ACP, Tb927.3.860) (from UniProt Q57WW9) | binds
2 | putative potassium voltage-gated channel (Tb927.10.16170) (from UniProt Q387P8) | binds
